## Results of single-concentration screens

Sequences of proteins named here, by UniProt entry; tags and fusion partners are left off. Residues count along the entry.
UniProt Q8IDJ8, 1-583: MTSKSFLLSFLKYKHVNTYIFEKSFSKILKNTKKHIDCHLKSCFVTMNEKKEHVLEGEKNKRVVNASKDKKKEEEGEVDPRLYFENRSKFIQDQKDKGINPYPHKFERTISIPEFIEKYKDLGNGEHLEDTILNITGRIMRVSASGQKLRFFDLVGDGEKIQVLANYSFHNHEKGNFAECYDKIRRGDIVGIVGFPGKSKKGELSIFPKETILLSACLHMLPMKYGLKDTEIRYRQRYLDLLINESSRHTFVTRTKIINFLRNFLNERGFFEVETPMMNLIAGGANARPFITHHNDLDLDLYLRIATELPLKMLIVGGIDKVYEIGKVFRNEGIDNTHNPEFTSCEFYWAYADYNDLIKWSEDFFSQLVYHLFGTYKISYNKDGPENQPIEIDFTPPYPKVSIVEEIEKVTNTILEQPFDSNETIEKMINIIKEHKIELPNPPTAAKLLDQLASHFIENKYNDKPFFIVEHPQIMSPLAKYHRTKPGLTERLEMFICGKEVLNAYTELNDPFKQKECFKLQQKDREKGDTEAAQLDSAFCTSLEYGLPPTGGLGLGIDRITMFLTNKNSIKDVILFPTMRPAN
UniProt Q4DA54, 1-478: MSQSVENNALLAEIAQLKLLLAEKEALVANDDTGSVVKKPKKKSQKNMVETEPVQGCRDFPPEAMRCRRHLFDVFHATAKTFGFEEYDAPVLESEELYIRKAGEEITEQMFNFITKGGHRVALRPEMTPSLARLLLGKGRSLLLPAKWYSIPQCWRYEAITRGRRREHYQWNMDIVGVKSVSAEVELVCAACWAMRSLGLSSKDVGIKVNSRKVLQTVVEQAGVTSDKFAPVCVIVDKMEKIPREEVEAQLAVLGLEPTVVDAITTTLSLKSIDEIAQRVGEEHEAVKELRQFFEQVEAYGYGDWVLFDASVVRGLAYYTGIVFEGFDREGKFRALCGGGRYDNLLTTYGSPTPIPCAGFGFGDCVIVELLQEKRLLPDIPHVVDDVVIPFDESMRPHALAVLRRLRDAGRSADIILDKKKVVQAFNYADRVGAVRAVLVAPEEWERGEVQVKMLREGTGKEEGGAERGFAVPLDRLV
UniProt I6X8D2, whole entry: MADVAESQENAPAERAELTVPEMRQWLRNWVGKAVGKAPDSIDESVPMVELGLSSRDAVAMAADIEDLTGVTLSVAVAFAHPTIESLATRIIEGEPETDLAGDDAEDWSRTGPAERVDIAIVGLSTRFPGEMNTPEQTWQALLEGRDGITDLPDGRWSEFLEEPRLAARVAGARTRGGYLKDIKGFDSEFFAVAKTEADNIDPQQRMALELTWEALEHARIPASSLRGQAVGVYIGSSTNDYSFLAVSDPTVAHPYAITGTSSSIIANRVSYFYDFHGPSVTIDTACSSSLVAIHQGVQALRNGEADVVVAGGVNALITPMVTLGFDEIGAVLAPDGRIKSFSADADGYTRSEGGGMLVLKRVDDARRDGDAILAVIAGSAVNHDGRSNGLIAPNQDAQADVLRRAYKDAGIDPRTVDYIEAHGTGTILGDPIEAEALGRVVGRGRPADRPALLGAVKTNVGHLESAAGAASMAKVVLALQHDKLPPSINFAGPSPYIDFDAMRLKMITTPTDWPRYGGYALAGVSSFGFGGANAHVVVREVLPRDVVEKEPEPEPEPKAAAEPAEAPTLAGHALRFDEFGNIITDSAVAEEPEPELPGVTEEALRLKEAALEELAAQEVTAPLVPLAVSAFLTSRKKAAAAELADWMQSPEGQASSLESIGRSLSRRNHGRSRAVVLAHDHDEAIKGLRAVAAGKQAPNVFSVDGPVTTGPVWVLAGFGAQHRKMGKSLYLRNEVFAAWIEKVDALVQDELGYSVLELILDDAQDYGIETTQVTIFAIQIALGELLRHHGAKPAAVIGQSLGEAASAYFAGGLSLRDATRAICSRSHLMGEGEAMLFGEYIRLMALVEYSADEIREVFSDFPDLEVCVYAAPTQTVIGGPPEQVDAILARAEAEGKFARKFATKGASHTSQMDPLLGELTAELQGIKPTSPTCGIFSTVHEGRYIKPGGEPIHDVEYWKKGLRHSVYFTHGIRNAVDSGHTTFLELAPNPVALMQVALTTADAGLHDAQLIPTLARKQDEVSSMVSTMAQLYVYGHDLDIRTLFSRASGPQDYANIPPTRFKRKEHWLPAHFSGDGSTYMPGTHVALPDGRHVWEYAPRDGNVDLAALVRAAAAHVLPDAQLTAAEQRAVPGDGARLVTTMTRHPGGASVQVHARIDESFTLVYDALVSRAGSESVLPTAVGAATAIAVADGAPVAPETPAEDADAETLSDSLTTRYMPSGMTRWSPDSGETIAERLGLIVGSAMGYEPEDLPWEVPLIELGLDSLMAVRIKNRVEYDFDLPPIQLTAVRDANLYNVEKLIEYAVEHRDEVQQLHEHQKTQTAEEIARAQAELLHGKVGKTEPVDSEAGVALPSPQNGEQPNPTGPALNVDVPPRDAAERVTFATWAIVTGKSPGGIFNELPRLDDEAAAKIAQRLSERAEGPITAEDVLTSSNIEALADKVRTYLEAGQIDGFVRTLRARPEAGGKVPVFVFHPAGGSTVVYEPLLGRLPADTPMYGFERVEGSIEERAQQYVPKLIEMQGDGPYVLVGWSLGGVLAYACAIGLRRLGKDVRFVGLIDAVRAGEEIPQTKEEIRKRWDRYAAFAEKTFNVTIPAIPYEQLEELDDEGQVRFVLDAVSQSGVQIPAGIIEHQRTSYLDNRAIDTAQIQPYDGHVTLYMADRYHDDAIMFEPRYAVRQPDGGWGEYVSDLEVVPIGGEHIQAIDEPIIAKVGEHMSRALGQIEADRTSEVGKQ

Each number is a percent effect as filed.
The controls that fix the scale are not given in the record; negative values are as filed.
This is an unselected part of the compounds tested.
A dash means the value is not listed here; it may have been measured.

PfKRS1: 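Lysine-tRNA ligase, Plasmodium falciparum 3D7 (UniProt Q8IDJ8). Enzyme assay of the cytosolic lysyl-tRNA synthetase in 384-well plates, read by luminescence. Concentration: 30 µM. Direction is inferred from only a few compounds that gave an IC50; most scored high, so higher reads as stronger inhibition. Size under these conditions: about 69,000 compounds, about 49 of them at 50% or above in at least one test.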
TcHisRS: 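Histidine-tRNA ligase, Trypanosoma cruzi CL Brener (UniProt Q4DA54). Enzyme assay of histidyl-tRNA synthetase; the read-out is not stated. Concentration: 30 µM. Direction is inferred from retests: higher values go with stronger inhibition. About 69,000 compounds were tested under these conditions; 0.045% (about 31) showed 50% or more at least once.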
Pks13 thioesterase: 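Polyketide synthase Pks13, Mycobacterium tuberculosis (UniProt I6X8D2). Enzyme assay of the thioesterase domain of polyketide synthase 13; the read-out is not stated. Concentration: 30 µM. Higher reads as stronger inhibition (inferred from which compounds were picked for retests). About 67,000 compounds were tested under these conditions; 0.46% (about 300) showed 50% or more at least once.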

Compound	PfKRS1	TcHisRS	Pks13 thioesterase
NC(=O)C1CCN(C(=O)CCn2c(C(F)(F)F)cc3cccnc32)CC1	1.467%	6.716%	2.752%
Cc1ccccc1CN1CCCC1c1cccc(Nc2nccs2)n1 (centres undefined)	1.138%	7.345%	-5.513%
CCN(CC)C(=O)CNS(=O)(=O)c1cc(Br)ccc1F	6.154%	5.056%	-28.55%
COc1ccc(-n2cccn2)cc1S(=O)(=O)N1C[C@H](C2CC2)[C@@H](N)C1	4.884%	8.8%	-
Cc1ccc(Cl)cc1N1CCN(CC(=O)NCc2ccco2)CC1	0.7284%	-0.8772%	-4.94%
COc1ccc(CC(=O)N2CCc3nc(C(=O)N(C)C)sc3CC2)cc1	3.005%	1.266%	0.131%
O=C(NCc1cncc2c1CCN(Cc1cccc(F)c1)C2)C1CC1	-1.795%	5.785%	-7.965%
CCOc1ccccc1CNC(=O)N1CCC(Cc2cnn(C)c2)C1 (centres undefined)	-0.5871%	1.765%	-26.13%
COc1cc(C2CC(=O)Nc3c2c(=O)[nH]n3C2CCCCC2)ccc1O (centres undefined)	-2.949%	0%	-6.581%
Cc1ncsc1C(=O)NCc1cc2n(n1)CCN(C(=O)N(C)C)C2	2.371%	2.97%	-28.47%
O=C(CCn1cncn1)Nc1ccc(F)cc1OCC1CC1	4.153%	7.216%	-7.242%
COCCOc1ccc(-c2noc([C@@H]3CCCN3C3CCC3)n2)cn1	2.446%	2.174%	19.89%
COc1cc2c(cc1CNCc1ccnc(-n3cccn3)c1)OC(C)C2 (centres undefined)	1.172%	10.3%	-19.78%
O=C(Cn1nc2c(cc1=O)CSCC2)NC(Cc1ccccc1)C(=O)O (centres undefined)	2.95%	0.5464%	-10.94%
CC(C)c1ncc(CN2CCC(CO)C2)cn1 (centres undefined)	0.6161%	11.24%	3.199%
O=C1CC2(CCCC2)CC(=O)N1Cc1nccs1	5.452%	0.8%	-6.376%
CCC(C(=O)NCC1CCN(c2ccncc2)CC1)N(C)C (centres undefined)	-0.5429%	1.242%	-34.02%
COCC1CN(S(=O)(=O)c2ccc(C)cc2)Cc2c1cnn2C (centres undefined)	14.7%	5.063%	-13.97%
Cc1nn(C)c(C)c1OCC(=O)N1CCCc2c(F)ccc(F)c21	-1.529%	10.78%	-28.75%
CN(C)C(=O)N1CCC2(CC1)COCCN(c1ncccn1)C2	2.084%	3.738%	-8.084%
O=C(NCCNc1ncccn1)N1CCN(c2nccs2)CC1	1.052%	7.267%	-1.026%
Cc1nnsc1C(=O)NCc1nn(C2CCCC2)c2c1CCCC2	4.38%	4.848%	-25.41%
OCCC1CN(c2nc(-c3ccncc3)nc3c2CCNCC3)CCO1 (centres undefined)	2.886%	5.102%	24.59%
CC(=O)c1ccc(S(=O)(=O)N2CCC(c3n[nH]c(C)n3)CC2)cc1	-1.625%	4.459%	19.42%
CC(C)(C)CC(=O)NC[C@H]1OC[C@@H](NC2CCC(F)(F)CC2)[C@@H]1O	1.438%	-2.174%	-29.81%
Cc1nn(C)cc1C(=O)NCc1csc(C2CC2)n1	3.277%	4.663%	-13.26%
CCN(CC)C1(Cc2cc(CC(C)C)on2)COC1	7.158%	2.488%	-16.45%
CCC(CC)NC(=O)c1ncn2c1CN(CC)S(=O)(=O)c1ccccc1-2	2.647%	-2.956%	-
CN1CCC(C)(CNC(=O)c2ccc(SCc3cccnc3)cc2)CC1	2.611%	9.278%	2.44%
O=C1N(c2cccc(Cl)c2)Cc2nc(=O)[nH]n21	0.7018%	1.136%	-11.5%
Cc1cc(C(=O)NCc2ccc(N3CCCC(C(N)=O)C3)cc2)on1 (centres undefined)	2.361%	0%	-20.83%
Cc1ccc(CN2CCc3c(nnn3C)C2COCc2ccccc2)s1 (centres undefined)	-3.411%	7.143%	-9.998%
CCN(CCn1cccn1)Cc1nc(-c2cc(F)ccc2F)oc1C	-1.359%	4.233%	-34.66%
O=C(NCCc1ccncc1)c1cccc(S(=O)(=O)N[C@@H]2CCNC2)c1	10.04%	8.8%	-6.185%
CCC(=O)N1CSCC1C(=O)Nc1ccccc1-c1cccs1 (centres undefined)	2.832%	5.195%	-17.29%
c1ncn(Cc2nnc(C3CCN(C4CCOCC4)CC3)n2C2CC2)n1	7.539%	10.23%	-8.253%
Cc1nc(NS(=O)(=O)c2cc(Br)ccc2C)no1	1.894%	4.167%	-14.87%
O=C1C(Nc2nccn3cnnc23)CCN1c1cccc(Cl)c1 (centres undefined)	-1.732%	8.173%	4.897%
COC(C(=O)N1CCCN(Cc2cscn2)CC1)c1ccccc1 (centres undefined)	4.257%	4.943%	-28.93%
Cn1cc(C2CCCN2C(=O)c2cnc(-c3cccs3)s2)cn1 (centres undefined)	-5.421%	3.03%	11.91%
O=C1CCCN1CCN1CCCCC1Cn1cncn1 (centres undefined)	2.561%	5.911%	-10.97%
Fc1cccc(C2CCCN2Cc2nnnn2C2CC2)c1 (centres undefined)	6.063%	4.911%	-14.75%
Cc1n[nH]c2nc(-c3cccc(Cl)c3)cc(C(=O)O)c12	10.27%	2.484%	-6.879%
CC(Cn1cccn1)NCCS(=O)(=O)c1ccc(Cl)cc1 (centres undefined)	-0.8035%	3.571%	-43.7%
CCOc1cc(C(=O)N2CCCC(c3noc(C(C)C)n3)C2)ccn1 (centres undefined)	0.4119%	4.046%	-20.87%
COc1c(CNCC(O)COc2ccc3c(c2)OCO3)c(C)nn1C (centres undefined)	5.738%	0.9804%	-19.58%
COCCCC(=O)NCc1cccc(NC(N)=O)c1	6.945%	5.051%	-20.18%
Cc1ccc(-c2nc(CNC3CCc4ncnn4C3)cs2)cc1 (centres undefined)	-0.261%	3.226%	-20.42%
c1cc(N2CCC(c3nnc(Cn4ccnc4)n3C3CC3)CC2)ccn1	6.86%	9.091%	-25.73%
CCCOC(C)Cn1ccc2[nH]c(=O)c(C#N)cc2c1=O (centres undefined)	61.23%	-5.759%	89.27%
Cc1ccc(NC2CCN(C(=O)CCCc3ccccn3)CC2)nn1	-0.2449%	3.061%	-7.039%
CNC(=O)C1Cn2ccnc2C2(CCN(Cc3cccc(C)n3)CC2)O1 (centres undefined)	-4.017%	7.182%	-14.71%
COc1ccnc(CNc2nc(C)nc(C)c2C)c1	2.933%	6.173%	4.716%
COc1ccc2c(O)c(NC(=O)NCC3CC3)cnc2c1	2.342%	-1.622%	-52.72%
CCCc1cc(CNc2cc(CCC)nc3ccnn23)on1	-3.648%	4.124%	1.33%
CN(CC(=O)N1CCCCC1c1nccs1)C1CC1 (centres undefined)	-2.707%	7.692%	-30.31%
COCCOc1ncccc1C(=O)N(C)c1ccc(OC)nc1	4.995%	-1.807%	-3.054%
O=C1CC2(CCN(C(=O)Cc3cc4c(cc3Cl)OCCO4)C2)C(=O)N1 (centres undefined)	5.84%	5.419%	15.72%
CCN(CC)CCC(=O)N1CCc2c(nc(N(C)C)nc2N(C)C)C1	-3.454%	18.39%	5.528%
O=C(NC1CC1)N1CC[C@H]2[C@H]1CCN2c1ncccn1	7.312%	11.65%	-20.94%
CC(C)(C)c1ncc(CNCC2CCCN2c2cccnn2)s1 (centres undefined)	-0.6431%	4.843%	-19.4%
Cc1cn2c(n1)CCC(NC(=O)c1ccc(OCC3CC3)nc1)C2 (centres undefined)	7.9%	8.621%	1.642%

Once more, the final 8:

| Compound | PfKRS1 | TcHisRS | Pks13 thioesterase |
|---|---|---|---|
| `CCCc1cc(CNc2cc(CCC)nc3ccnn23)on1` | -3.648% | 4.124% | 1.33% |
| `CN(CC(=O)N1CCCCC1c1nccs1)C1CC1` (centres undefined) | -2.707% | 7.692% | -30.31% |
| `COCCOc1ncccc1C(=O)N(C)c1ccc(OC)nc1` | 4.995% | -1.807% | -3.054% |
| `O=C1CC2(CCN(C(=O)Cc3cc4c(cc3Cl)OCCO4)C2)C(=O)N1` (centres undefined) | 5.84% | 5.419% | 15.72% |
| `CCN(CC)CCC(=O)N1CCc2c(nc(N(C)C)nc2N(C)C)C1` | -3.454% | 18.39% | 5.528% |
| `O=C(NC1CC1)N1CC[C@H]2[C@H]1CCN2c1ncccn1` | 7.312% | 11.65% | -20.94% |
| `CC(C)(C)c1ncc(CNCC2CCCN2c2cccnn2)s1` (centres undefined) | -0.6431% | 4.843% | -19.4% |
| `Cc1cn2c(n1)CCC(NC(=O)c1ccc(OCC3CC3)nc1)C2` (centres undefined) | 7.9% | 8.621% | 1.642% |

Source: ChEMBL document CHEMBL3988442, “University of Dundee, Small-Polar-MMV Screening Library” (2021).